The target of assay [1] is T1, endogenous RNF8 (human (endogenous in U2OS)) (UniProt O76064).
T1 sequence: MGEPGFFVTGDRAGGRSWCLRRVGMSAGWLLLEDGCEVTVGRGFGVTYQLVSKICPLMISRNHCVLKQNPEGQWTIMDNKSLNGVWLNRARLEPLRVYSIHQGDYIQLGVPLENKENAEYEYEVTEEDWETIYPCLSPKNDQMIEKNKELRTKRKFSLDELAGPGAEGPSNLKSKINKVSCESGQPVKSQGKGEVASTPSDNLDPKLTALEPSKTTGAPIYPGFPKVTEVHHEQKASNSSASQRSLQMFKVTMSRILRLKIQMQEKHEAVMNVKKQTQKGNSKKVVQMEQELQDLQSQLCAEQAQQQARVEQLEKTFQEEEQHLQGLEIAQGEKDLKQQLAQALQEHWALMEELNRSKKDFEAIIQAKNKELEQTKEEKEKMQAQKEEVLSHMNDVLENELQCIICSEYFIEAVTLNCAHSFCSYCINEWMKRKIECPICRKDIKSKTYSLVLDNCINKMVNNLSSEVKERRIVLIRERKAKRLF
Description: co-IP; immunoprecipitation with anti-RNF8 antibody from U2OS lysate, both proteins endogenous; western blot with anti-RecQL4. In general terms: Immunoblotting shows a protein as a band on a membrane.

A further assay concerns the target T2, Flag-RNF8 (UniProt O76064).
T2 sequence: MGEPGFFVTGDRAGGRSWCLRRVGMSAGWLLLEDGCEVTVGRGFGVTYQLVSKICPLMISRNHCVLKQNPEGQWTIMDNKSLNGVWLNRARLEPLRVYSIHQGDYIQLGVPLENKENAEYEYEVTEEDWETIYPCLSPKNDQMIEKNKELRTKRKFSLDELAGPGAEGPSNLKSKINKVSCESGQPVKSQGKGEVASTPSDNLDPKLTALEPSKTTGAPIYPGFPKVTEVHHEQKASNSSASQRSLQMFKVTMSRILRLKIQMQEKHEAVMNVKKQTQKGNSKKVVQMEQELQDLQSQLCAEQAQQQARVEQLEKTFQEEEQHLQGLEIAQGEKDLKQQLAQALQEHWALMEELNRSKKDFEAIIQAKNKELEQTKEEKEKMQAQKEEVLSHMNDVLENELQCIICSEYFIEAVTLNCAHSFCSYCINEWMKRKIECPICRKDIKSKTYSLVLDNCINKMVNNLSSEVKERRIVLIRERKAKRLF
The assay is described as follows: co-IP; anti-Flag (M2) immunoprecipitation from lysates of transfected U2OS cells, SDS-free buffer; western blot for the endogenous partner.

A further assay addresses T3, Flag-RecQL4 (human) (UniProt O94761).
T3 sequence: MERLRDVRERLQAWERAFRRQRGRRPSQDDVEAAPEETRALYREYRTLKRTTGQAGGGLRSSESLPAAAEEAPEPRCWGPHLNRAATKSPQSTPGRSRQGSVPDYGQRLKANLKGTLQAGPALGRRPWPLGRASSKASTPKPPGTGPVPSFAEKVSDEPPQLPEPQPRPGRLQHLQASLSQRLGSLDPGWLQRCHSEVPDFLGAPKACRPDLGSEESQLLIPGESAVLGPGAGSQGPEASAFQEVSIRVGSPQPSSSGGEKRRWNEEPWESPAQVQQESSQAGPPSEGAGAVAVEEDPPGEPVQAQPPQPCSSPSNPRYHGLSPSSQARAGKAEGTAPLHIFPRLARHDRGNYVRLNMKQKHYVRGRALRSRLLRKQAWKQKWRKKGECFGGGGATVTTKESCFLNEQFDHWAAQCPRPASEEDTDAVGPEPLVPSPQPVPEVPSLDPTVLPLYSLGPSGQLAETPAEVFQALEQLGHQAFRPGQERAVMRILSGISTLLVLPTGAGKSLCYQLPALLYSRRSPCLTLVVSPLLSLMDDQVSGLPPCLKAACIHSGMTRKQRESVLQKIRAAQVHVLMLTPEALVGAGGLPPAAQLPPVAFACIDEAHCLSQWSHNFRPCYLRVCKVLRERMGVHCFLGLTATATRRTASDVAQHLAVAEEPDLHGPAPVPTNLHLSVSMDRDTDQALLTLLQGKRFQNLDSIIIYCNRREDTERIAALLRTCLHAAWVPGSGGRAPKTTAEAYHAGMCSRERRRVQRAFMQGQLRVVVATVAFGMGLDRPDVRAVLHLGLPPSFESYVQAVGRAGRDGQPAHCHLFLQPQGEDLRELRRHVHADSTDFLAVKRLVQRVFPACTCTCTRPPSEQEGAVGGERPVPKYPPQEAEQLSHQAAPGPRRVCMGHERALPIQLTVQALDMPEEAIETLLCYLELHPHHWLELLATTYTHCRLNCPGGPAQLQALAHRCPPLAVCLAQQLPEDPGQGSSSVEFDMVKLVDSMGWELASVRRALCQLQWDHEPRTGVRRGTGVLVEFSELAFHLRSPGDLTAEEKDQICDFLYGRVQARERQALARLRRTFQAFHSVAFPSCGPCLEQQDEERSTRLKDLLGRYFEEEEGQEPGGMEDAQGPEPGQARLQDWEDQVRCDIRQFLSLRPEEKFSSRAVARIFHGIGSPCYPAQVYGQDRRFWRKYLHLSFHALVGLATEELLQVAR
Described as above.

A further assay concerns the target T4, Flag-RecQL4-CT (human) (UniProt O94761).
T4 sequence: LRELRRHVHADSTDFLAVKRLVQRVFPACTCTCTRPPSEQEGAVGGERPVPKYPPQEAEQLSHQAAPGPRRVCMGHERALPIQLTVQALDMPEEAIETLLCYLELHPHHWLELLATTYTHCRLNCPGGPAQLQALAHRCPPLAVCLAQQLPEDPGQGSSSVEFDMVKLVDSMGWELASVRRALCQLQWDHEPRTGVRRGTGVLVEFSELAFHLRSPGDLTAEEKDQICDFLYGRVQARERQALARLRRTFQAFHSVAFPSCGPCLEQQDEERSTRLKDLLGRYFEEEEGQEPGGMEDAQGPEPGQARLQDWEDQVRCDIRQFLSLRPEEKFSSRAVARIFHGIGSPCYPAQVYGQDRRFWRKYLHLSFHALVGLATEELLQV
The assay is described as follows: co-IP; Flag-tagged RecQL4 domains (NT, HD, CT) immunoprecipitated, western blot with anti-RNF8 antibody; cells not given.

The target of the next assay is T5, Flag-RecQL4-HD (human) (UniProt O94761).
T5 sequence: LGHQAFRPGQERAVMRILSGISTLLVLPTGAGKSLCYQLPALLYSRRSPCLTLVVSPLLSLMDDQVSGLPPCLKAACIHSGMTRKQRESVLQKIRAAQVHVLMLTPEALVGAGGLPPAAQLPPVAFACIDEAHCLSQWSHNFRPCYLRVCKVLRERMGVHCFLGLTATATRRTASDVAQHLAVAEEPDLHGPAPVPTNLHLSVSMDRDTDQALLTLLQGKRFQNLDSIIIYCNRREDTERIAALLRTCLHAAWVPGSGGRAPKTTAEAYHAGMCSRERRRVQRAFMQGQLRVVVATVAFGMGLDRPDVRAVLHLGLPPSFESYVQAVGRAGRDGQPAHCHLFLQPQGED
The description is as above.

A further assay deals with T6, Flag-RecQL4-NT (human) (UniProt O94761).
T6 sequence: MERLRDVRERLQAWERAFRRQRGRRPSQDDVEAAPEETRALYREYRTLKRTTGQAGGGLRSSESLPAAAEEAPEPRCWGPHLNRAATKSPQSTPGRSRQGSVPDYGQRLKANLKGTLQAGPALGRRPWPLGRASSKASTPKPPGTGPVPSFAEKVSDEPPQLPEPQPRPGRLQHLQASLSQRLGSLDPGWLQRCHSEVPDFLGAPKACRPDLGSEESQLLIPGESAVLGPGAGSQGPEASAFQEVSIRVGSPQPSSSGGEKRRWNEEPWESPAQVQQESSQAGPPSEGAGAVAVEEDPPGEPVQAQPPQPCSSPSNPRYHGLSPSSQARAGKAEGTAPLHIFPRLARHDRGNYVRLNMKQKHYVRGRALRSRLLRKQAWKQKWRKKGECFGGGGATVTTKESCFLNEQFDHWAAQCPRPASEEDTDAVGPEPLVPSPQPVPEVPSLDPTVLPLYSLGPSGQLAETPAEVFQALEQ
Described as above.

No constants are given. Whether binding was seen depends on the method and setting. In cells and extracts the contact can be indirect. Some entries that bind do so weakly or less than the wild type. For part of these data: Where a sequence is shown, tags or fusion partners need not be part of it.

B1: endogenous RecQL4 (protein, UniProt O94761 1-1208)
chain: MERLRDVRERLQAWERAFRRQRGRRPSQDDVEAAPEETRALYREYRTLKRTTGQAGGGLRSSESLPAAAEEAPEPRCWGPHLNRAATKSPQSTPGRSRQGSVPDYGQRLKANLKGTLQAGPALGRRPWPLGRASSKASTPKPPGTGPVPSFAEKVSDEPPQLPEPQPRPGRLQHLQASLSQRLGSLDPGWLQRCHSEVPDFLGAPKACRPDLGSEESQLLIPGESAVLGPGAGSQGPEASAFQEVSIRVGSPQPSSSGGEKRRWNEEPWESPAQVQQESSQAGPPSEGAGAVAVEEDPPGEPVQAQPPQPCSSPSNPRYHGLSPSSQARAGKAEGTAPLHIFPRLARHDRGNYVRLNMKQKHYVRGRALRSRLLRKQAWKQKWRKKGECFGGGGATVTTKESCFLNEQFDHWAAQCPRPASEEDTDAVGPEPLVPSPQPVPEVPSLDPTVLPLYSLGPSGQLAETPAEVFQALEQLGHQAFRPGQERAVMRILSGISTLLVLPTGAGKSLCYQLPALLYSRRSPCLTLVVSPLLSLMDDQVSGLPPCLKAACIHSGMTRKQRESVLQKIRAAQVHVLMLTPEALVGAGGLPPAAQLPPVAFACIDEAHCLSQWSHNFRPCYLRVCKVLRERMGVHCFLGLTATATRRTASDVAQHLAVAEEPDLHGPAPVPTNLHLSVSMDRDTDQALLTLLQGKRFQNLDSIIIYCNRREDTERIAALLRTCLHAAWVPGSGGRAPKTTAEAYHAGMCSRERRRVQRAFMQGQLRVVVATVAFGMGLDRPDVRAVLHLGLPPSFESYVQAVGRAGRDGQPAHCHLFLQPQGEDLRELRRHVHADSTDFLAVKRLVQRVFPACTCTCTRPPSEQEGAVGGERPVPKYPPQEAEQLSHQAAPGPRRVCMGHERALPIQLTVQALDMPEEAIETLLCYLELHPHHWLELLATTYTHCRLNCPGGPAQLQALAHRCPPLAVCLAQQLPEDPGQGSSSVEFDMVKLVDSMGWELASVRRALCQLQWDHEPRTGVRRGTGVLVEFSELAFHLRSPGDLTAEEKDQICDFLYGRVQARERQALARLRRTFQAFHSVAFPSCGPCLEQQDEERSTRLKDLLGRYFEEEEGQEPGGMEDAQGPEPGQARLQDWEDQVRCDIRQFLSLRPEEKFSSRAVARIFHGIGSPCYPAQVYGQDRRFWRKYLHLSFHALVGLATEELLQVAR
On to B1, for which the binding entry (in assay [1]; in the assay with Flag-RNF8) was “binds” each time.

B2: endogenous RNF8 (protein, UniProt O76064-1 1-485)
chain: MGEPGFFVTGDRAGGRSWCLRRVGMSAGWLLLEDGCEVTVGRGFGVTYQLVSKICPLMISRNHCVLKQNPEGQWTIMDNKSLNGVWLNRARLEPLRVYSIHQGDYIQLGVPLENKENAEYEYEVTEEDWETIYPCLSPKNDQMIEKNKELRTKRKFSLDELAGPGAEGPSNLKSKINKVSCESGQPVKSQGKGEVASTPSDNLDPKLTALEPSKTTGAPIYPGFPKVTEVHHEQKASNSSASQRSLQMFKVTMSRILRLKIQMQEKHEAVMNVKKQTQKGNSKKVVQMEQELQDLQSQLCAEQAQQQARVEQLEKTFQEEEQHLQGLEIAQGEKDLKQQLAQALQEHWALMEELNRSKKDFEAIIQAKNKELEQTKEEKEKMQAQKEEVLSHMNDVLENELQCIICSEYFIEAVTLNCAHSFCSYCINEWMKRKIECPICRKDIKSKTYSLVLDNCINKMVNNLSSEVKERRIVLIRERKAKRLF
As to B2, the binding result with Flag-RecQL4 (human) is listed as “binds”.

B3: RNF8 (co-IP with the RecQL4 domains) (protein, UniProt O76064-1 1-485)
chain: MGEPGFFVTGDRAGGRSWCLRRVGMSAGWLLLEDGCEVTVGRGFGVTYQLVSKICPLMISRNHCVLKQNPEGQWTIMDNKSLNGVWLNRARLEPLRVYSIHQGDYIQLGVPLENKENAEYEYEVTEEDWETIYPCLSPKNDQMIEKNKELRTKRKFSLDELAGPGAEGPSNLKSKINKVSCESGQPVKSQGKGEVASTPSDNLDPKLTALEPSKTTGAPIYPGFPKVTEVHHEQKASNSSASQRSLQMFKVTMSRILRLKIQMQEKHEAVMNVKKQTQKGNSKKVVQMEQELQDLQSQLCAEQAQQQARVEQLEKTFQEEEQHLQGLEIAQGEKDLKQQLAQALQEHWALMEELNRSKKDFEAIIQAKNKELEQTKEEKEKMQAQKEEVLSHMNDVLENELQCIICSEYFIEAVTLNCAHSFCSYCINEWMKRKIECPICRKDIKSKTYSLVLDNCINKMVNNLSSEVKERRIVLIRERKAKRLF
Turning to B3, the binding result with Flag-RecQL4-CT (human), in the assay with Flag-RecQL4-HD (human) and with Flag-RecQL4-NT (human) was “binds” in each case.
